# Measured values taken from US8480995B2, “Use of sodium selenosulfate for supplementing selenium and enhancing the therapeutic efficacy of chemotherapy agents, and a rapid process for preparing sodium selenosulfate” (University of Science and Technology of China, priority 2007, dated 2013).
# For at least one compound, name, drawing or mass did not settle the structure.
# Columns and labels:
# [1] = system: Human hepatoma cells (HepG2); assay: Cell proliferation assay (MTT, day 0-6); assay type: cell-based; conditions: 12.5 μM Se, day 0-6, MTT; FIG. 7B
# Procedure: (§1) Cell culture: Human hepatoma cells (HepG2) and human colorectal cancer cells (CaCo2) were cultivated at 37° C. under 5% CO2 by using EMEM cell culture media containing 10% Fetal Bovine serum. Cell killing assay: the tumor cells were added into a 96-well plate with a density of 5000 cells/well for 24 hours, and then the culture media were changed to those with different Se concentrations. At 72 hours, the cell numbers were determined by MTT protocol. Each treatment was conducted in 3 parallels, and the data were expressed by percent relative to cell numbers when no Se was added. Cell proliferation assay: HepG2 or CaCo2 cells were added into a 96-well plate with a density of 1000 cells/well for 24 hours, and then the culture media were changed to those with 12.5 μM Se. The day was defined as day 0. The cell numbers were determined by MTT protocol on day 0, 2, 4 and 6, respectively. Each treatment was conducted with 8 parallels, and the data were expressed with percent relative to the cell numbers on day 0. MTT assay: Each well was added with 20 μL MTT (5 mg/mL) 4 hours prior to the end of culture. After the culture was ended, the supernatant was discarded, and the formazan particles were dissolved in HCl-isopropanol (10 μL/well). The readings were recorded at 595 nm on a microplate reader.
# [2] = system: Human hepatoma cells (HepG2); assay: Cell killing assay (MTT, 72 hours); assay type: cell-based; conditions: FIG. 7A
# Procedure: as §1
structure (smiles),measurement,setting,value
"O=[Se](O)O [Sodium selenite, sodium selenite]",suppression of proliferation of HepG2 cells,[1],did not show obvious effect
same,killing effect on HepG2 cells,[2],much lower effect than sodium selenosulfate
